Test results from patent US7316915.
No constants are given. Whether binding was seen depends on the method and setting. Binding seen in cells or lysates may run through a third protein. Some results given as binding are weak or reduced against the parent protein; the word gives no strength. Where a sequence is shown, tags or fusion partners need not be part of it.

T1: synthetic peptide of the first 50 residues of Bak (Bak 1-50)
T1 sequence (peptide): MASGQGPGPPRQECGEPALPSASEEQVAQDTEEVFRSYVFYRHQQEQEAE

T2: BakΔ3 (N-terminal deletion mutant of Bak, amino acids 96-210 of full-length Bak) (Homo sapiens (Human)) (UniProt Q16611)
T2 sequence: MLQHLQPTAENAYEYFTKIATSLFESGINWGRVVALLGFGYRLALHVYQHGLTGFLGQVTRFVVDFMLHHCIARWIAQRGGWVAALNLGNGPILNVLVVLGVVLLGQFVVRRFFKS


Columns and labels:
[1] = biological target: T1, synthetic peptide of the first 50 residues of Bak (Bak 1-50); assay: GST pull-down of synthetic peptide (100 µg), Western blot
[2] = biological target: T2, BakΔ3 (N-terminal deletion mutant of Bak, amino acids 96-210 of full-length Bak) (Homo sapiens (Human)); assay: GST pull-down from Sf9 extract, immunoblot with anti-Bak

binding [1] | binding [2] | Binder
binds |  | HTGYIKVDWQRVEKDMKKAKEQLKIRKSNQIPTEVRSKAEEVVSFVKK (peptide, not shown: a dimerising Fc or GST) [gst fusion protein containing BBP-Loop2 (internal loop of BBP, amino acids 86 through 133)]
binds | binds | MAASSQGNFEGNFESLDLAEFAKKQPWWRKLFGQESGPSAEK (peptide, not shown: a dimerising Fc or GST) [gst fusion protein containing BBP-Loop1 (N-terminal 42 amino acid portion of BBP)]
